Assay results taken from patent publication US8956878B2, “Polypeptides with affinity for heat shock proteins (HSPS) and HSP associated complexes (HACS) and their use in diagnosis and therapy” (Atlantic Cancer Research Institute, priority 2011, dated 2015).

System: Nalm-6 cytoplasmic and membrane associated proteins
Experiment: CHIEF against subcellular fractions of Nalm-6 leukemia cells
Format: binding
From the text: Abbreviations: φ=No peptide added at anode; MBPWT1, MBP100-117_WT1 117-134; MBP, MBP100-117; WT1, WT1 117-134. […] The arrowheads in lanes 2, 6, 10 (top), 14 and 18 (top) indicate expected CHIEF complex focusing near the 6.8 pl marker. The arrowheads in lanes 10 (bottom) and 18 (bottom) indicate the appearance of a CHIEF complex focusing near the 7.4 pl marker. The arrowheads in lane 5 and 19 (top and bottom) indicate where there has been cross over of the MBP117-134WT1 peptide into an adjacent lane causing a drive-by or swipe CHIEF complex formation (lane 5, lane 19).
Three identical lanes were prepared for the generation of CHIEF complexes between MBP100-117WT1 117-134 (80 μg) and 10 μg of Nalm-6 membrane associated proteins.
The example investigates the possibility that the bMBPWT1 peptide binds HSPs directly from cell lysates in a similar manner to when single recombinant HSP was used as a counter ion. Cancer cells are addicted to the overexpression of HSPs to support growth under poor environmental conditions, to facilitate the function of otherwise unstable oncoproteins and the ablation of apoptosis. Most, if not all, cancer cells should provide a rich source of human HSPs to serve as complex forming counter migrants for the MBP peptide co-synthesised with WT1 and SW peptides. To investigate this possibility, subcellular fractions enriched in cytoplasmic proteins (extraction buffer 1) and membrane associated proteins (extraction buffer 2) were prepared from a leukemia cell line, Nalm-6, and a breast cancer cell line, MDA MB231 (FIG. 7). The individual MBP and WT1 peptides were also included as potential counter migrants.
Bands representing counter migrant complexes typical of the pl ˜6.8 and pl ˜7.4 observed in FIG. 7 were excised by scalpel. The gel pieces were boiled in Laemmli buffer and resolved by SDS-PAGE (FIG. 8 a-b). In the manner previously described for the detection of proteins binding to corynebacterial HSP70, it was anticipated that binding partners of the bMBPWT1 peptide would become denatured and migrate into the SDS-PAGE gel. […]

[1] = Nalm-6 membrane associated proteins, second dimension SDS-PAGE

MBPWT1: MBP peptide 100-117 co-synthesised with Wilms tumor protein 1 peptide 117-134 (PSQGKGRGLSLSRFSWGAPSQASSGQARMFPNAPYL)
focusing position (pI marker) of CHIEF complex with Nalm-6 membrane associated fraction (80 μg peptide, 10 μg subcellular fraction): ~7.4 | proteins identified by mass spectrometry in the counter migrant complex focusing near 6.8 [1]: HSP90, HSP60, calreticulin, 14-3-3 zeta and calmodulin | proteins identified by mass spectrometry in the counter migrant complex focusing near pI 7.4 [1]: HSP90 (both cytoplasmic and gp96 isoforms), and at least 20 other proteins that were not heat shock proteins
